Data taken from ChEMBL document CHEMBL3988442, “University of Dundee, Small-Polar-MMV Screening Library” (2021).

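Whole-cell assay for inhibitors of Mycobacterium tuberculosis growth, labelled Cornell in the record; the read-out is not stated. The concentration is filed as 10 mM, unlikely as a test dose, so the dose is not known. The record gives no direction; compounds strong in two other growth screens of this library score well above the rest, so higher reads as stronger inhibition. Size under these conditions: about 53,000 compounds, about 900 of them at 50% or above in at least one test.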

Values are the deposited “Percent Effect”, in %. The controls that fix the scale are not given in the record; negative values are as filed. This is an unselected part of the compounds tested.

| # | structure | percent effect |
|---|---|---|
| 1 | `COCCN1C[C@@H](C)[C@@]2(COCCN(C(=O)c3ccno3)C2)C1.O=C(O)C(F)(F)F` | 12.93% |
| 2 | `CNC(=O)C1CCCN(C(=O)c2ccccc2-n2cc(CN)cn2)C1` (stereo unspecified) | -11.82% |
| 3 | `Cc1cccc(CN2CCC3(CCCN(Cc4cnn(C)c4)C3)C2)n1.O=C(O)C(F)(F)F.O=C(O)C(F)(F)F` (stereo unspecified) | 6.482% |
| 4 | `CCc1nnc(CN(CC)C(=O)C2CC(=O)N(C3CCCC3)C2)o1` (stereo unspecified) | -48.78% |
| 5 | `CCc1cccc(NC(=O)CCC(=O)N(C)Cc2nc(C)c[nH]2)c1` | -18.46% |
| 6 | `[H][C@]12CC[C@]([H])(CN(c3cnccn3)C1)N(C(=O)c1csc(C)c1CC)C2` | 31.3% |
| 7 | `CS(=O)(=O)C1CCN(S(=O)(=O)c2ccc(F)c(F)c2)C1` (stereo unspecified) | 4.333% |
| 8 | `CC(NCCCN1CCCN(C)CC1)C(C)(C)C` (stereo unspecified) | 7.117% |
| 9 | `CC(C)(C)C(=O)NCCCc1nc2ccccc2[nH]1` | -25.54% |
| 10 | `Cc1nn(C)cc1CN1CCCC(n2c(=O)oc3ccccc32)C1` (stereo unspecified) | 11.24% |
| 11 | `N#Cc1cccnc1N1CCCC(CO)(Cc2ccc(F)cc2)C1` (stereo unspecified) | 15.72% |
| 12 | `CC(C)c1n[nH]c(C2CN(C(=O)C3=COCC3)CCO2)n1` (stereo unspecified) | -29.19% |
| 13 | `Cn1ccnc1COc1ccc(NC(=O)CCC2CCCO2)cc1` (stereo unspecified) | 9.575% |
| 14 | `[H][C@@]12OCCN(C(=O)c3ccncn3)[C@@]1([H])CC[C@@H]2OCc1cccnc1` | 26.64% |
| 15 | `CC(NC(=O)Nc1ccc(S(C)(=O)=O)cc1)c1ccc2c(c1)CC(=O)N2` (stereo unspecified) | -16.65% |
| 16 | `Cc1nc(C(=O)N2CCC(c3nccn3Cc3ccncc3)CC2)cs1` | 9.139% |
| 17 | `CC(NCc1ccccn1)c1ccc(N2CCN(C)CC2)c(F)c1` (stereo unspecified) | -3.758% |
| 18 | `CCN(C)S(=O)(=O)N(CC)Cc1cccc(-c2ccncc2)c1` | 37.92% |
| 19 | `O=C(Nc1nncs1)c1ccc(O)nc1` | -37.71% |
| 20 | `C[S+]([O-])CCCNCc1cc(F)ccc1Br` (stereo unspecified) | 23.75% |
| 21 | `Cc1cc(CCC2CN(CC3(O)CCCCC3)CCO2)ncn1` (stereo unspecified) | -20.94% |
| 22 | `NCCC(Cc1ccccc1)c1ccco1` (stereo unspecified) | 10.84% |
| 23 | `CN(C)C(=O)N1CC(C(=O)NCC2CC2)C2(CCOCC2)C1` (stereo unspecified) | -8.487% |
| 24 | `CCn1cc(C(=O)NCc2cccnc2N(C)Cc2ccccc2)cn1` | 28.52% |
| 25 | `CO[C@@H]1CO[C@@]2(CCN(C(=O)COc3ccccc3C)C2)C1` | 19.03% |
| 26 | `CC(NC(=O)Nc1nccs1)c1cccnc1` (stereo unspecified) | -27.11% |
| 27 | `[H][C@@]12CN(CC3CCOCC3)C[C@]1([H])OCCN2c1ccnc(N(C)C)n1` | 45.03% |
| 28 | `Cc1cc(NC(=O)CNC(C)(C)c2ccc3c(c2)OCCO3)no1` | 9.774% |
| 29 | `Cc1nc(CC(=O)N2CCCC2c2nc(C(C)C)no2)cs1` (stereo unspecified) | -3.108% |
| 30 | `CN1CCC(c2n[nH]c(=O)n2CC2CCCCC2)CC1` | -3.621% |
| 31 | `Cc1cc(C)c2c(N(C)CC3CCOC3)ncnc2n1` (stereo unspecified) | 16.76% |
| 32 | `O=C(O)C(F)(F)F.[H][C@@]12CCN(C(=O)c3cnn(C)c3)[C@@]1([H])CCN2Cc1ccc(OC)cc1` | 0.157% |
| 33 | `Cc1cc(C)nc(C2CCN(C(=O)c3cncnc3C)C2)n1` (stereo unspecified) | -38.99% |
| 34 | `O=C1NCC2(CCCN(Cc3ccc(F)cc3)C2)Oc2ccccc21` (stereo unspecified) | 28.07% |
| 35 | `Cc1nccnc1C1CCN(C2CCCC2O)CC1` (stereo unspecified) | -4.62% |
| 36 | `COc1cc(CN(C)C(C)c2ccccn2)cc2c1OCO2` (stereo unspecified) | 12.61% |
| 37 | `CC(C)c1noc(CCCC(=O)N2CCN(C)CC2c2ccccc2)n1` (stereo unspecified) | 31.65% |
| 38 | `Cc1nc(NCCSc2ccccn2)c2c(C)noc2n1` | 17.75% |
| 39 | `N#Cc1cccc(C(=O)N2CC(c3nc(-c4ccc[nH]c4=O)no3)C2)c1` | 15.5% |
| 40 | `CN(C)C(=O)CC1CC2(CCN(Cc3ccoc3)CC2)c2ccccc21.O=C(O)C(F)(F)F` (stereo unspecified) | 25.2% |
| 41 | `CCn1c(CC2CCN(C(=O)c3cc(C(C)C)nn3C)CC2)n[nH]c1=O` | -5.539% |
| 42 | `O=C(CN1C(=O)CCC1=O)NCc1nn(C2CCCC2)c2c1CCCC2` | 11.69% |
| 43 | `Cc1cc(NCCCc2c(C)noc2C)nc(N)n1` | 37.07% |
| 44 | `Cc1c(C)n2c(SCC(=O)N3CCCCC3)nnc2[nH]c1=O` | 1.073% |
| 45 | `CCNC(=O)c1cc2n(n1)CCCO2` | -8.867% |
| 46 | `COC(=O)N1CC2=CC(C)(C)COc3ccc(OC)c(c32)C1` | 31.49% |
| 47 | `[H][C@@]12CN(C(=O)CCO)C[C@]1([H])C(=O)N(c1ccccc1)C2` | 17.56% |
| 48 | `O=C1NCCCCC1NC(=O)C1(c2cccc(Cl)c2)CC1` (stereo unspecified) | 13.55% |
| 49 | `COc1cccc(CNC(=O)c2nc3c(s2)CCN(C(C)=O)CC3)c1` | -14.13% |
| 50 | `COC(=O)c1cc2c(OC)c(C)c(OC)cc2[nH]1` | 15.4% |
| 51 | `CN(Cc1ccccc1)c1ncccc1CNC(=O)c1ccnn1C` | 20.98% |
| 52 | `CN(CC1CC1)c1ccc2ccc(C(=O)NCCc3ccccc3)cn12` | 9.896% |
| 53 | `COCc1nnc(C(=O)N2CCC(N3CCCCC3)CC2)o1` | -29.51% |
| 54 | `O=C(Nc1cccnc1)C1Cc2nc(-c3ccsc3)sc2N1CC1CC1.O=C(O)C(F)(F)F` (stereo unspecified) | 38.41% |
| 55 | `CC(C)CN1CCC(C(=O)NCCNC(=O)c2ccco2)CC1` | -39.85% |

5 of the entries, repeated:

- [H][C@@]12OCCN(C(=O)c3ccncn3)[C@@]1([H])CC[C@@H]2OCc1cccnc1 | 26.64%
- C[S+]([O-])CCCNCc1cc(F)ccc1Br (stereo unspecified) | 23.75%
- O=C1NCC2(CCCN(Cc3ccc(F)cc3)C2)Oc2ccccc21 (stereo unspecified) | 28.07%
- O=C1NCCCCC1NC(=O)C1(c2cccc(Cl)c2)CC1 (stereo unspecified) | 13.55%
- Cc1nc(C(=O)N2CCC(c3nccn3Cc3ccncc3)CC2)cs1 | 9.139%